Laboratory results reported in paper PMC5022029.
No constants are given. Whether binding was seen depends on the method and setting. Binding seen in cells or lysates may run through a third protein. Some binding calls cover weakened binding; strength is not graded here.

By UniProt entry, the sequences of proteins in these tests, tags left out. Where a name states a change or a piece, a line headed by the entry shows the natural chain unless it says otherwise.
UniProt Q96D31: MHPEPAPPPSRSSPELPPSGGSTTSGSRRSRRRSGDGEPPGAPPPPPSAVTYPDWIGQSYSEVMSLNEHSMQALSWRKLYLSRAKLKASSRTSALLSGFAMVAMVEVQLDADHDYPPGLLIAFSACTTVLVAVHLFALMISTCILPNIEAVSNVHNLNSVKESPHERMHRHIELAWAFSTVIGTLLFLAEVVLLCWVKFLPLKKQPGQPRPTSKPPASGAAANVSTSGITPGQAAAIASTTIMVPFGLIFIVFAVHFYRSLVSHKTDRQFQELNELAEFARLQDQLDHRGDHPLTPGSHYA

Molecular target: human Orai1 S239A, C-terminally GFP-tagged (Orai1S239A-GFP) (human) (UniProt Q96D31)
Experiment: FRET or BRET; TIRF-FRET (sensitized emission, apparent EFRET) in HEKS1 cells (stably expressing STIM1) co-expressing GFP- and RFP-tagged Orai1 subunits, after Tg-induced store depletion; control or 10 min pretreatment with 1 mM H2O2

Substance: human Orai1 S239A, C-terminally GFP-tagged (Orai1S239A-GFP) (from UniProt Q96D31 1-301)
- binding: binds
